Assay results published in article PMC7808939.
No constants are given. Whether binding was seen depends on the method and setting. Binding seen in cells or lysates may run through a third protein. Binding can be weak; no strength is given. Where a sequence is shown, tags or fusion partners need not be part of it.

Biological target: T1, Flag-D3 (NIH3T3) (UniProt P30282)
T1 sequence: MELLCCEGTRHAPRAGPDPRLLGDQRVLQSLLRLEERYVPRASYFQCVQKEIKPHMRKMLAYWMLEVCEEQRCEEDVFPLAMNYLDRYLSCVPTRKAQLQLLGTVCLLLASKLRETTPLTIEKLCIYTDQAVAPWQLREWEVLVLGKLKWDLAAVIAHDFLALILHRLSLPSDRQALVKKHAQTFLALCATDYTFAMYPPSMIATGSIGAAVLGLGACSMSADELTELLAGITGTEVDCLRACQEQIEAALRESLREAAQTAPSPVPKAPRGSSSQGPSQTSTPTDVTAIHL
Test: co-IP; NIH3T3 co-transfected with HA-GFP or HA-Fbxl8 (wild type or deletion mutants) and Flag-D3, MG132 (20 μM) for 4 h; anti-Flag beads

binding: binds
Substance: HA-Fbxl8ΔC3 (NIH3T3) (domain or fragment)
